Results: the supplement of paper PMC10849652
The list shows a part of the results.

By UniProt entry, the sequences of proteins in these tests, tags left out. Where a name states a change or a piece, a line headed by the entry shows the natural chain unless it says otherwise.
UniProt Q14061: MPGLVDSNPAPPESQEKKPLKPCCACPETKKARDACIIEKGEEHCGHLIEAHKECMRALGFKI
UniProt Q99807: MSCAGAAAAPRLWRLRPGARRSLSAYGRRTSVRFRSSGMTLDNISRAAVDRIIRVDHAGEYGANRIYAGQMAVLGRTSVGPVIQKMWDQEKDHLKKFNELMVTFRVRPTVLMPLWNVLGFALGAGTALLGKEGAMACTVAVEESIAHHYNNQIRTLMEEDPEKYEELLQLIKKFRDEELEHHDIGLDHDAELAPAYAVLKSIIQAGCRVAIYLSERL
UniProt P21964: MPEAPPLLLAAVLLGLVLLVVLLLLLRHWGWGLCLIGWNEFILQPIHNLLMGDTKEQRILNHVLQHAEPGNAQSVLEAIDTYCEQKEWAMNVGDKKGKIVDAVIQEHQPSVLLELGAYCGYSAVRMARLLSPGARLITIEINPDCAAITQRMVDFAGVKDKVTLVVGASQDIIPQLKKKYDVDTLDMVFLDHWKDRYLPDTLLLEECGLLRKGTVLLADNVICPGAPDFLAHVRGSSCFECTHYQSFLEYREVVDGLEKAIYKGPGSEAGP
UniProt Q7KZN9: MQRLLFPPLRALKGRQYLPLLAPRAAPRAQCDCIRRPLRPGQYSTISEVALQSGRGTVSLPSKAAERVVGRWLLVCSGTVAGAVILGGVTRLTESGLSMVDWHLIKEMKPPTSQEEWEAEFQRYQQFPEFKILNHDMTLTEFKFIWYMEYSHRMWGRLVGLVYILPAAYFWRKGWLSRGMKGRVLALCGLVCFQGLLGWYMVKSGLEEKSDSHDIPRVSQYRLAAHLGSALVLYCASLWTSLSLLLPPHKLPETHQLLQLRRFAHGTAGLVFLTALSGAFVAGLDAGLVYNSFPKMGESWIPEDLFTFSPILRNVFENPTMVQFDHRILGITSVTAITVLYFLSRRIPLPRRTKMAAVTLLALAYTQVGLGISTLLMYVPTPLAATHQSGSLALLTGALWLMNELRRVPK
UniProt P46109: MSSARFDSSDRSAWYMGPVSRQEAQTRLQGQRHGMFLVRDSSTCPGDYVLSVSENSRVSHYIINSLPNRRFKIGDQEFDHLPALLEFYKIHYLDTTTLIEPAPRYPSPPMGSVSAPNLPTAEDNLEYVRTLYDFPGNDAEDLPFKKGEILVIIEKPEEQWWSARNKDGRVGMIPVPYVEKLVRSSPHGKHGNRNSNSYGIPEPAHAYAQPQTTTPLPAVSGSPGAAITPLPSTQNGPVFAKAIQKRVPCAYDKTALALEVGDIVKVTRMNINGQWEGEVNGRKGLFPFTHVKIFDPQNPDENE
UniProt P41240: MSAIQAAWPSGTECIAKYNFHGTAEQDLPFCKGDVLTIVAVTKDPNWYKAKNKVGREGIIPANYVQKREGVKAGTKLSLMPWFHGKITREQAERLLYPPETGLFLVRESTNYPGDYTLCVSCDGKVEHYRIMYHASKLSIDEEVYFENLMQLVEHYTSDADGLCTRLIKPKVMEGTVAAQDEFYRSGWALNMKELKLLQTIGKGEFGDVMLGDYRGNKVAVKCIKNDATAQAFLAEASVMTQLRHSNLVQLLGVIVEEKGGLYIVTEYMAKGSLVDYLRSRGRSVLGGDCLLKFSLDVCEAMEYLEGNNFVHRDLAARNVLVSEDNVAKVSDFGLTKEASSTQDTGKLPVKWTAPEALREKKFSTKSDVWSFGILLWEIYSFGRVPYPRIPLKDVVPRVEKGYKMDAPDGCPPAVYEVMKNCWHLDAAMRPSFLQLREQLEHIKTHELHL
UniProt Q9Y646: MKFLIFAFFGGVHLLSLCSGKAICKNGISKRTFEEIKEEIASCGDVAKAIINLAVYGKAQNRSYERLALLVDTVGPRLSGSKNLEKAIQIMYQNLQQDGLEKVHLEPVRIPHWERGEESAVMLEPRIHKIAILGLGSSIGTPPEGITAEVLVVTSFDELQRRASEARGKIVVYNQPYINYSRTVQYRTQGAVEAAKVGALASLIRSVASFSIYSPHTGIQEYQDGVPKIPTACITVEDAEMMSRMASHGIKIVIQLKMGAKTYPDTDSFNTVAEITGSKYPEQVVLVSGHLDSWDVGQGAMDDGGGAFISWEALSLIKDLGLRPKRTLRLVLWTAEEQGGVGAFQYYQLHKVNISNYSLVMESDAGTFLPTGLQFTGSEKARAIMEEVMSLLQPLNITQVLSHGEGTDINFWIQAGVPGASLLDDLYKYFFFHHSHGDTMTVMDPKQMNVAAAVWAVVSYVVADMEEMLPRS
UniProt P15954, whole entry, looked up: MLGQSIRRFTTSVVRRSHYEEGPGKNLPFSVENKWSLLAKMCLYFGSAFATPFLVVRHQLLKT
UniProt P48730: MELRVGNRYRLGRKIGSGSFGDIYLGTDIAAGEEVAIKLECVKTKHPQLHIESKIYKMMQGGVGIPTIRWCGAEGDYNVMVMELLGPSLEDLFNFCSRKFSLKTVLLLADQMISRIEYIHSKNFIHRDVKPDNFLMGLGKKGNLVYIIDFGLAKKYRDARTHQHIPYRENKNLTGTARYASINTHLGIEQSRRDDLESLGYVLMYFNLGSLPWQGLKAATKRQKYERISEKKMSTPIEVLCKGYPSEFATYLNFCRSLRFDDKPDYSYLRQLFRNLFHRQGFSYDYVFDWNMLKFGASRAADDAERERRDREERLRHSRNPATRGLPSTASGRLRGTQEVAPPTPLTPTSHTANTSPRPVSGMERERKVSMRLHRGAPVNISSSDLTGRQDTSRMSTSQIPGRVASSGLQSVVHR
UniProt Q16630, whole entry, looked up: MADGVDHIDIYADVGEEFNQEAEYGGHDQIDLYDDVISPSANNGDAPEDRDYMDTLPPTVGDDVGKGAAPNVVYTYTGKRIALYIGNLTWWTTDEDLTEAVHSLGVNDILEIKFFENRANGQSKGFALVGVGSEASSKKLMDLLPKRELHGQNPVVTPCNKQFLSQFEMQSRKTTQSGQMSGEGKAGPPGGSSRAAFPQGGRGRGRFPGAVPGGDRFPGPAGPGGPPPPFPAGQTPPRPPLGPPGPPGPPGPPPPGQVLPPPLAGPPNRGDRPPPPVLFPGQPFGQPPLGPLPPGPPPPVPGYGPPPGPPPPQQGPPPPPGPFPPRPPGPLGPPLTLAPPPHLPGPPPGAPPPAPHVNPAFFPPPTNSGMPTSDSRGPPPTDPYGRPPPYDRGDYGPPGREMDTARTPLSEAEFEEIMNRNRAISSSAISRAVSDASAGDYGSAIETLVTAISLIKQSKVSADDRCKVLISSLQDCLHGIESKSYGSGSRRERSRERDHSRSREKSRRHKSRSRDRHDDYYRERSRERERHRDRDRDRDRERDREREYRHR
UniProt Q86X83, whole entry, looked up: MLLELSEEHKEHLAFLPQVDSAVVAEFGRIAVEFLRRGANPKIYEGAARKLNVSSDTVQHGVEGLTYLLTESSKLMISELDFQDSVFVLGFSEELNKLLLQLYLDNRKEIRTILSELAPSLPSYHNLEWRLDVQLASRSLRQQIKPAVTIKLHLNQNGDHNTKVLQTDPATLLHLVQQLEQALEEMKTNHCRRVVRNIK
UniProt P14854, whole entry, looked up: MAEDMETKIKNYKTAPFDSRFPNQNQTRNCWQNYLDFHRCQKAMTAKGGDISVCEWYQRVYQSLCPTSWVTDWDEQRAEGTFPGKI
UniProt Q14194, whole entry, looked up: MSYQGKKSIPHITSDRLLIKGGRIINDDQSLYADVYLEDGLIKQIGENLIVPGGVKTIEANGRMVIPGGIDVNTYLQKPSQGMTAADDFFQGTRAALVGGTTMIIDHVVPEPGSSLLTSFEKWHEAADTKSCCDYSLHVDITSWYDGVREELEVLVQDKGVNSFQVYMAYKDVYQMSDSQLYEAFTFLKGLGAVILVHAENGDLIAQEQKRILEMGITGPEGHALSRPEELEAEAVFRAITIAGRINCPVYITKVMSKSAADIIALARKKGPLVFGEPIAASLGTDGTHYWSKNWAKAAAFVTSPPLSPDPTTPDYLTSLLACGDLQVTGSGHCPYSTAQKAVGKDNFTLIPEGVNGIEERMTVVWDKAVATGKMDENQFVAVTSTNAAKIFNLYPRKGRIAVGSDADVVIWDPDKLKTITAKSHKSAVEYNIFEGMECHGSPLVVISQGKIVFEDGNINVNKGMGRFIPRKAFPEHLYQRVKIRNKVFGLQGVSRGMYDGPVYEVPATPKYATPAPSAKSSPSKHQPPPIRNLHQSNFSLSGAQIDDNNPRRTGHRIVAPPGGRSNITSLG
UniProt Q8N752: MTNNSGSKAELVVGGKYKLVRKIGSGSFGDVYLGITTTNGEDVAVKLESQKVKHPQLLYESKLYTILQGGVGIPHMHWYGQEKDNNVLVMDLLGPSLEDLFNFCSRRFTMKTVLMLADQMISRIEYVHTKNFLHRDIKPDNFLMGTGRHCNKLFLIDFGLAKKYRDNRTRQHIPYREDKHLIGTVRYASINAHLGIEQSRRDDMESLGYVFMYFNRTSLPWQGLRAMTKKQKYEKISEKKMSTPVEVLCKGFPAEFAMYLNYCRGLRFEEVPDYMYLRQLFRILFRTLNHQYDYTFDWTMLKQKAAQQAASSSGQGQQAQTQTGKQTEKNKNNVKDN
UniProt Q92828: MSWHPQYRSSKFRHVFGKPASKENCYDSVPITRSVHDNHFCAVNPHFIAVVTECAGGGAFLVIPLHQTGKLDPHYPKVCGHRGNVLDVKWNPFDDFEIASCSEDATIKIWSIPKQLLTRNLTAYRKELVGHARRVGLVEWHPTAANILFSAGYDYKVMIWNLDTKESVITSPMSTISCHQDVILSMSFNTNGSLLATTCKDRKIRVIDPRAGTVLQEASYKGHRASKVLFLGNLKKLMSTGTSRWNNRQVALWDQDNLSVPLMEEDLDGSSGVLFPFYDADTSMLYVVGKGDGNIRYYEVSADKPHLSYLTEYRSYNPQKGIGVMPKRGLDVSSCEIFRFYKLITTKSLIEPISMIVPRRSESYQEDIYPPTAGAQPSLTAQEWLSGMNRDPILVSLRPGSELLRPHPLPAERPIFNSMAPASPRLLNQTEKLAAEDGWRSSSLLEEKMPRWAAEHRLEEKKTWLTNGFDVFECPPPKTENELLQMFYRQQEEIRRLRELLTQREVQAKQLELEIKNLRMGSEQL
UniProt Q6UUV9: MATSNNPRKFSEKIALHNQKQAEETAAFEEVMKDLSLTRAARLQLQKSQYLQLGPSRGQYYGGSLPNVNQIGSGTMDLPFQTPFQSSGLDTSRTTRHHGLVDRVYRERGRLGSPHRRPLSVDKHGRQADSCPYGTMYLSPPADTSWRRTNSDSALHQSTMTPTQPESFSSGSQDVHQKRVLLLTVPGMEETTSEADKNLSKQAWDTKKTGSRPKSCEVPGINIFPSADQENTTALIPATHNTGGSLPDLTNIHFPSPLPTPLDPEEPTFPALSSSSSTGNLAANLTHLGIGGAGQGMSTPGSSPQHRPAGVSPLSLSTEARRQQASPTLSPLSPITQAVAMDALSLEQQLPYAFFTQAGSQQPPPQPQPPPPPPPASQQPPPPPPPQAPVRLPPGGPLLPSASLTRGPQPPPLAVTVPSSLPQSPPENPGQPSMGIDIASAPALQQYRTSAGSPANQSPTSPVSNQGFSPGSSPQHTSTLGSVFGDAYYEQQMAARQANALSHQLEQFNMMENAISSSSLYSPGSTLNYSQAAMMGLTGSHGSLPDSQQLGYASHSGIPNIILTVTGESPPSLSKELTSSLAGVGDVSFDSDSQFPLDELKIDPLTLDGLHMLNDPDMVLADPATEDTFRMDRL
UniProt Q9UBL6: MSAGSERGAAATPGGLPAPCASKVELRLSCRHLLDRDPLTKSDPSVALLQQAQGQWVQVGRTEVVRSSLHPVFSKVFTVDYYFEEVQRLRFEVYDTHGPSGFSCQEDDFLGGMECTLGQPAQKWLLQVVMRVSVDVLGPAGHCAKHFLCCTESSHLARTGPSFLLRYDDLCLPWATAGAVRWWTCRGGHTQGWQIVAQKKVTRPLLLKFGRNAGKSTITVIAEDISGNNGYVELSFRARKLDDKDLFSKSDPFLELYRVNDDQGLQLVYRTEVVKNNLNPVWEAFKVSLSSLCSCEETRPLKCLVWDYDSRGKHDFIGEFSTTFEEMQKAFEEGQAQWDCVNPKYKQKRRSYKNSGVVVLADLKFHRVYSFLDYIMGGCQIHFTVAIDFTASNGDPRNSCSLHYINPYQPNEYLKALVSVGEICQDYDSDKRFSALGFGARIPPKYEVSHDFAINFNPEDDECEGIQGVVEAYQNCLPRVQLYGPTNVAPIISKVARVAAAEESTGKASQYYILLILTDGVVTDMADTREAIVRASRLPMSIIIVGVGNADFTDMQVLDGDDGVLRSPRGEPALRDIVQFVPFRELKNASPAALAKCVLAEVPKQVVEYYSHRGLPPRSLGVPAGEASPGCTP

How the values were obtained:
Experiment in all cases: log2 fold change, soluble protein after heating vs DMSO (PISA); higher = thermal stabilisation; K562 cells, 10 uM, 30 min; active = over 0.2 and 3.5 SD of the protein, either way, in both replicates (recomputed)
[1] = compound: CN1CCN(CCOc2cc(OC3CCOCC3)c3c(Nc4c(Cl)ccc5c4OCO5)ncnc3c2)CC1 [saracatinib]
In short: (§1)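 K562 cells (2×10^6 cells/mL) were treated with 10 μM compound for 30 min, and aliquots were heated for 3 min over 48°C-58°C. Pooled aliquots were extracted in PBS with 0.5% NP-40 at 4°C, and the supernatant after 21,000xg for 90 min was measured by TMTpro 16plex LC-MS/MS with channel sums equalised. Reported thermal stability, relative to control samples and from duplicates, is a log2 fold change.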

[2] = compound: CN1CCN(c2nc(C3=C(c4c[nH]c5ccccc45)C(=O)NC3=O)c3ccccc3n2)CC1 [sotrastaurin]
In short: as §1

[3] = compound: CN1CCc2c(c3ccccc3n2Cc2ccc(C(=O)NO)cc2)C1 [Tubastatin A]
In short: as §1

[4] = compound: CNC(=O)C1=CC=CC=C1NC2=NC(=NC=C2Cl)NC3=C(C=C(C=C3)N4CCOCC4)OC
In short: as §1

[5] = compound: CNC(=O)c1ccc(Nc2ncc(C(F)(F)F)c(NCc3nccnc3N(C)S(C)(=O)=O)n2)cc1 [defactinib]
In short: as §1

[6] = compound: CNc1nc(-c2ccc3c(N)n[nH]c3c2)cc(N2C[C@@H](C(=O)NC3CCCCC3)CC[C@H]2C)n1
In short: as §1

[7] = compound: COC(=O)[C@H](CCSC)NC(=O)C1=C(C=C(C=C1)NC[C@H](CS)N)C2=CC=CC=C2
In short: as §1

[8] = compound: COC1=CC=C(C=C1)CN2C=CC3=C2C=C(C=C3)C(=O)NO
In short: as §1

[9] = compound: CON(C)C(=O)N1N=C(c2cc(F)ccc2F)S[C@@]1(CCCN)c1ccccc1 [filanesib]
In short: as §1

[10] = compound: CO[C@H]1C[C@@H]2CC[C@@H](C)[C@@](O)(O2)C(=O)C(=O)N2CCCC[C@H]2C(=O)O[C@H]([C@H](C)C[C@@H]2CC[C@H](n3cnnn3)[C@H](OC)C2)CC(=O)[C@H](C)/C=C(\C)[C@@H](O)[C@@H](OC)C(=O)[C@H](C)C[C@H](C)/C=C/C=C/C=C/1C [zotarolimus]
In short: as §1

[11] = compound: COc1cc(C(=O)O)ccc1NC(=O)[C@@H]1N[C@@H](CC(C)(C)C)[C@](C#N)(c2ccc(Cl)cc2F)[C@H]1c1cccc(Cl)c1F [idasanutlin]
In short: as §1

[12] = compound: COc1cc(Nc2ncc3c(n2)-c2ccc(Cl)cc2C(c2c(F)cccc2OC)=NC3)ccc1C(=O)O [alisertib]
In short: as §1

[13] = compound: COc1cc2ncnc(Nc3ccc(F)c(Cl)c3)c2cc1OCCCN1CCOCC1 [gefitinib]
In short: as §1

[14] = compound: COc1cccc2cc(-c3nc([C@H]4CC[C@H](C(=O)O)CC4)n4ncnc(N)c34)[nH]c12
In short: as §1

[15] = compound: CS(=O)(=O)N1CCN(Cc2cc3nc(-c4cccc5[nH]ncc45)nc(N4CCOCC4)c3s2)CC1 [pictilisib]
In short: as §1

[16] = compound: CNCc1ccc(-c2[nH]c3cc(F)cc4c3c2CCNC4=O)cc1 [rucaparib]
In short: as §1

[17] = compound: COC(=O)N[C@@H](C)CNc1nccc(-c2cn(C(C)C)nc2-c2cc(Cl)cc(NS(C)(=O)=O)c2F)n1 [encorafenib]
In short: as §1

[18] = compound: COc1cc2nc(-c3cc(F)ccc3O)nc(N[C@@H]3CNC[C@H]3C(C)(C)O)c2cc1OC
In short: as §1

[19] = compound: CS(=O)(=O)CCNCc1ccc(-c2ccc3ncnc(Nc4ccc(OCc5cccc(F)c5)c(Cl)c4)c3c2)o1 [lapatinib]
In short: as §1

[20] = compound: CN1CC[C@H](c2c(O)cc(O)c3c(=O)cc(-c4ccccc4Cl)oc23)[C@H](O)C1 [alvocidib]
In short: as §1

Target | log2 fold change [1] | log2 fold change [2] | log2 fold change [3] | log2 fold change [4] | log2 fold change [5] | log2 fold change [6] | log2 fold change [7] | log2 fold change [8] | log2 fold change [9] | log2 fold change [10] | log2 fold change [11] | log2 fold change [12] | log2 fold change [13] | log2 fold change [14] | log2 fold change [15] | log2 fold change [16] | log2 fold change [17] | log2 fold change [18] | log2 fold change [19] | log2 fold change [20]
COX17 (UniProt Q14061) | inactive: -0.092 | inactive: -0.023 | inactive: -0.113 | inactive: -0.008 | inactive: -0.072 | inactive: 0.023 | inactive: 0.147 | inactive: 0.183 | inactive: -0.059 | inactive: 0.034 | inactive: 0.059 | inactive: -0.112 | inactive: -0.055 | inactive: 0.02 | inactive: 0.092 | – | – | – | – | –
COQ7 (UniProt Q99807) | inactive: 0.024 | inactive: 0.055 | inactive: -0.009 | inactive: 0.043 | inactive: 0.03 | inactive: -0.028 | inactive: 0.059 | inactive: 0.001 | inactive: -0.098 | inactive: -0.081 | inactive: 0.026 | inactive: 0.115 | inactive: 0.055 | inactive: 0.031 | inactive: 0.074 | inactive: -0.062 | inactive: -0.058 | inactive: 0.011 | inactive: 0.042 | –
COMT (UniProt P21964) | inactive: -0.046 | inactive: 0.109 | active: 0.4 | inactive: 0.008 | inactive: -0.006 | inactive: 0.029 | inactive: -0.09 | inactive: -0.097 | inactive: -0.054 | inactive: 0.034 | inactive: -0.093 | inactive: 0.009 | inactive: 0.043 | inactive: 0.004 | inactive: 0.136 | inactive: -0.018 | inactive: -0.039 | inactive: 0.15 | inactive: -0.042 | –
CPSF1 (UniProt Q10570) | inactive: 0.024 | inactive: -0.01 | inactive: -0.02 | inactive: -0.05 | inactive: 0.038 | inactive: -0.061 | inactive: -0.032 | inactive: -0.042 | inactive: 0.164 | inactive: 0.095 | inactive: 0.053 | inactive: -0.08 | inactive: -0.079 | inactive: 0.01 | inactive: -0.058 | inactive: 0.018 | inactive: -0.048 | inactive: 0.02 | inactive: 0.029 | –
COX15 (UniProt Q7KZN9) | inactive: 0.071 | inactive: 0.004 | inactive: -0.009 | inactive: -0.008 | inactive: -0.003 | inactive: -0.017 | inactive: 0.002 | inactive: 0.04 | inactive: -0.046 | inactive: 0.005 | inactive: -0.055 | inactive: -0.054 | inactive: -0.001 | inactive: 0.052 | inactive: 0.071 | active: -0.236 | inactive: 0.023 | inactive: -0.012 | inactive: 0.001 | –
CRKL (UniProt P46109) | active: -1.42 | inactive: 0.003 | inactive: 0.003 | inactive: -0.01 | inactive: -0.052 | inactive: 0 | inactive: 0.008 | inactive: 0.006 | inactive: 0.002 | inactive: 0.007 | inactive: 0.022 | inactive: -0.036 | inactive: 0 | inactive: 0.102 | inactive: 0.057 | inactive: -0.001 | inactive: 0.016 | inactive: 0.021 | inactive: -0.012 | –
CSK (UniProt P41240) | inactive: -0.01 | inactive: -0.069 | inactive: 0.048 | inactive: 0.097 | inactive: -0.105 | inactive: 0.007 | inactive: -0.048 | inactive: 0.034 | inactive: -0.049 | inactive: 0.007 | inactive: -0.056 | inactive: -0.018 | inactive: 0.024 | inactive: -0.049 | inactive: 0.02 | inactive: -0.008 | inactive: 0.013 | inactive: 0.024 | inactive: 0.008 | –
CPQ (UniProt Q9Y646) | inactive: 0.039 | inactive: -0.012 | inactive: 0.02 | inactive: -0.049 | inactive: -0.035 | inactive: -0.031 | inactive: 0.006 | inactive: -0.014 | inactive: -0.05 | inactive: -0.058 | inactive: -0.093 | inactive: -0.054 | inactive: 0.038 | inactive: 0.047 | inactive: 0.027 | inactive: -0.042 | inactive: 0.008 | inactive: 0.01 | inactive: -0.014 | –
COX7C (UniProt P15954) | inactive: 0.026 | inactive: 0.028 | inactive: 0.03 | inactive: 0.007 | inactive: 0.031 | inactive: -0.054 | inactive: 0.047 | inactive: 0.12 | inactive: 0.009 | – | inactive: 0.114 | inactive: -0.016 | inactive: 0.059 | inactive: -0.053 | inactive: -0.288 | inactive: 0.011 | inactive: -0.06 | inactive: -0.069 | inactive: 0.008 | –
CSNK1D (UniProt P48730) | inactive: -0.047 | inactive: -0.038 | inactive: 0.039 | inactive: 0.111 | inactive: 0.045 | inactive: -0.038 | inactive: -0.012 | inactive: 0.045 | inactive: 0.153 | inactive: -0.019 | inactive: 0.027 | inactive: -0.016 | inactive: -0.006 | inactive: -0.009 | inactive: -0.053 | inactive: 0.032 | inactive: 0.06 | inactive: -0.049 | inactive: 0.041 | –
CPSF6 isoform 2 (UniProt Q16630) | inactive: -0.014 | inactive: 0.031 | inactive: 0.015 | inactive: -0.217 | inactive: -0.009 | inactive: 0.008 | inactive: 0.007 | inactive: -0.03 | inactive: 0.036 | inactive: 0.016 | inactive: 0.034 | inactive: -0.046 | inactive: 0.023 | inactive: 0.025 | inactive: 0.055 | inactive: 0.016 | inactive: -0.043 | inactive: 0.063 | inactive: -0.016 | –
COMMD2 (UniProt Q86X83) | inactive: -0.17 | inactive: 0.043 | inactive: 0.179 | active: 0.411 | inactive: -0.088 | inactive: 0.039 | inactive: 0.012 | inactive: -0.039 | inactive: 0.058 | inactive: 0.124 | inactive: -0.058 | inactive: -0.126 | inactive: 0.018 | inactive: 0.001 | inactive: 0.007 | inactive: 0.034 | inactive: -0.005 | inactive: 0.076 | inactive: 0.02 | –
COX6B1 (UniProt P14854) | inactive: 0.024 | inactive: -0.012 | inactive: -0.069 | inactive: 0.015 | inactive: -0.023 | inactive: -0.061 | inactive: 0.008 | inactive: -0.08 | inactive: 0.003 | inactive: 0.012 | inactive: 0 | inactive: 0.007 | inactive: 0.036 | inactive: 0.019 | inactive: 0.002 | inactive: 0.022 | inactive: -0.043 | inactive: 0.045 | inactive: -0.026 | –
CRMP1 isoform 2 (UniProt Q14194) | inactive: -0.059 | inactive: 0.107 | inactive: 0.025 | inactive: 0.024 | inactive: -0.149 | inactive: -0.041 | inactive: 0.025 | – | inactive: 0.067 | inactive: -0.045 | inactive: 0.172 | – | inactive: -0.407 | – | inactive: 0.107 | – | – | – | – | –
CSNK1A1L (UniProt Q8N752) | inactive: 0.026 | inactive: -0.007 | inactive: 0.038 | inactive: 0.005 | inactive: 0.094 | inactive: -0.05 | inactive: -0.018 | inactive: -0.089 | inactive: 0.129 | inactive: -0.057 | inactive: 0.092 | inactive: 0.038 | inactive: -0.069 | inactive: -0.074 | inactive: -0.111 | inactive: 0.06 | inactive: 0.038 | inactive: -0.096 | inactive: 0.013 | –
CORO2A (UniProt Q92828) | inactive: 0.016 | inactive: 0.015 | inactive: -0.055 | inactive: 0.053 | inactive: -0.015 | inactive: -0.097 | inactive: -0.028 | – | inactive: -0.035 | inactive: -0.049 | inactive: -0.071 | inactive: 0.035 | inactive: -0.097 | inactive: -0.02 | inactive: -0.11 | inactive: -0.266 | inactive: 0.21 | inactive: -0.057 | inactive: -0.011 | –
CRTC1 isoform 2 (UniProt Q6UUV9) | inactive: -0.026 | inactive: 0.011 | inactive: -0.009 | inactive: -0.101 | inactive: -0.021 | inactive: -0.062 | inactive: 0.009 | active: -0.39 | inactive: -0.002 | – | inactive: -0.021 | – | – | – | inactive: -0.013 | – | – | inactive: 0.138 | inactive: 0.028 | –
CPNE7 (UniProt Q9UBL6) | inactive: 0.056 | – | inactive: -0.094 | inactive: -0.021 | inactive: -0.194 | inactive: 0.061 | inactive: -0.042 | inactive: 0.001 | – | inactive: 0.018 | inactive: -0.091 | inactive: -0.207 | inactive: 0.068 | inactive: 0.047 | – | inactive: 0.057 | inactive: 0.006 | inactive: 0.085 | inactive: -0.061 | inactive: -0.165

Single records, as listed above. Values in the order: log2 fold change [1] | log2 fold change [2] | log2 fold change [3] | log2 fold change [4] | log2 fold change [5] | log2 fold change [6] | log2 fold change [7] | log2 fold change [8] | log2 fold change [9] | log2 fold change [10] | log2 fold change [11] | log2 fold change [12] | log2 fold change [13] | log2 fold change [14] | log2 fold change [15] | log2 fold change [16] | log2 fold change [17] | log2 fold change [18] | log2 fold change [19] | log2 fold change [20]
COX17 (UniProt Q14061) reads inactive: -0.092 | inactive: -0.023 | inactive: -0.113 | inactive: -0.008 | inactive: -0.072 | inactive: 0.023 | inactive: 0.147 | inactive: 0.183 | inactive: -0.059 | inactive: 0.034 | inactive: 0.059 | inactive: -0.112 | inactive: -0.055 | inactive: 0.02 | inactive: 0.092 | – | – | – | – | –
CPNE7 (UniProt Q9UBL6) reads inactive: 0.056 | – | inactive: -0.094 | inactive: -0.021 | inactive: -0.194 | inactive: 0.061 | inactive: -0.042 | inactive: 0.001 | – | inactive: 0.018 | inactive: -0.091 | inactive: -0.207 | inactive: 0.068 | inactive: 0.047 | – | inactive: 0.057 | inactive: 0.006 | inactive: 0.085 | inactive: -0.061 | inactive: -0.165
